Record: PubChem BioAssay AID1508597 (Cure First, 2020)
This is an unselected part of the about 2,100 reagents, under one of the conditions tested. 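Calls flag viability under 80% in either arm, not effects specific to rucaparib; the reference for percent is not stated.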 Entries without a mark were called inactive. No sequences are given here. Not stated in the record: the 100% reference.

Aim: 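Genes whose silencing sensitises or protects ovarian cancer cells against rucaparib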 (primary screen)
Cells: human ovarian carcinoma lines grown from tumours: OCI-P5x (papillary serous) and OCI-C5x (clear cell)
Reagent: siRNA pool against human genes, 1.25 pmol siRNA per well
Timing: 72 h or 96 h, depending on the cell culture
Challenge: rucaparib 20 µM (about IC30) or vehicle, present until read-out
Rucaparib or vehicle: Rucaparib
Cell line: OCI-C5x (clear cell)
Measurement: 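ATP luminescence measured at 72 or 96 h according to the culture, then normalised and expressed as percent viability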
Reading the numbers: viability, normalised: higher = more viable cells remaining
Rule for the call: 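a well counts as a hit if its normalised viability is under 80 percent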
Calls: active = viability under 80%; inactive = viability 80% or more

{"Target gene": "COQ8A (coenzyme Q8A)", "technical replicate": "1", "viability, normalised (%)": 82.6}
{"Target gene": "COQ8A (coenzyme Q8A)", "technical replicate": "2", "viability, normalised (%)": "61.1 (active)"}
{"Target gene": "COQ8A (coenzyme Q8A)", "technical replicate": "3", "viability, normalised (%)": "73.6 (active)"}
{"Target gene": "SMAD2 (SMAD family member 2)", "technical replicate": "1", "viability, normalised (%)": "48 (active)"}
{"Target gene": "SMAD2 (SMAD family member 2)", "technical replicate": "2", "viability, normalised (%)": "37.9 (active)"}
{"Target gene": "SMAD2 (SMAD family member 2)", "technical replicate": "3", "viability, normalised (%)": "48.2 (active)"}
{"Target gene": "PSKH1 (protein serine kinase H1)", "technical replicate": "1", "viability, normalised (%)": "63.5 (active)"}
{"Target gene": "PSKH1 (protein serine kinase H1)", "technical replicate": "2", "viability, normalised (%)": "45.9 (active)"}
{"Target gene": "PSKH1 (protein serine kinase H1)", "technical replicate": "3", "viability, normalised (%)": "43.2 (active)"}
{"Target gene": "F7 (coagulation factor VII)", "technical replicate": "1", "viability, normalised (%)": "41.6 (active)"}
{"Target gene": "F7 (coagulation factor VII)", "technical replicate": "2", "viability, normalised (%)": "22.4 (active)"}
{"Target gene": "F7 (coagulation factor VII)", "technical replicate": "3", "viability, normalised (%)": "24.9 (active)"}
{"Target gene": "GUCY2D (guanylate cyclase 2D, retinal)", "technical replicate": "1", "viability, normalised (%)": "42.4 (active)"}
{"Target gene": "GUCY2D (guanylate cyclase 2D, retinal)", "technical replicate": "2", "viability, normalised (%)": "55.9 (active)"}
{"Target gene": "GUCY2D (guanylate cyclase 2D, retinal)", "technical replicate": "3", "viability, normalised (%)": "36.6 (active)"}
{"Target gene": "DPY30 (dpy-30 histone methyltransferase complex regulatory subunit)", "technical replicate": "1", "viability, normalised (%)": "65.8 (active)"}
{"Target gene": "DPY30 (dpy-30 histone methyltransferase complex regulatory subunit)", "technical replicate": "2", "viability, normalised (%)": "54.2 (active)"}
{"Target gene": "DPY30 (dpy-30 histone methyltransferase complex regulatory subunit)", "technical replicate": "3", "viability, normalised (%)": "55.3 (active)"}
{"Target gene": "RPS6KA6 (ribosomal protein S6 kinase A6)", "technical replicate": "1", "viability, normalised (%)": "49.6 (active)"}
{"Target gene": "RPS6KA6 (ribosomal protein S6 kinase A6)", "technical replicate": "2", "viability, normalised (%)": "47.6 (active)"}
{"Target gene": "RPS6KA6 (ribosomal protein S6 kinase A6)", "technical replicate": "3", "viability, normalised (%)": "42.2 (active)"}
{"Target gene": "PHKG2 (phosphorylase kinase catalytic subunit gamma 2)", "technical replicate": "1", "viability, normalised (%)": "45.2 (active)"}
{"Target gene": "PHKG2 (phosphorylase kinase catalytic subunit gamma 2)", "technical replicate": "2", "viability, normalised (%)": "43.2 (active)"}
{"Target gene": "PHKG2 (phosphorylase kinase catalytic subunit gamma 2)", "technical replicate": "3", "viability, normalised (%)": "46.3 (active)"}
{"Target gene": "STK32C (serine/threonine kinase 32C)", "technical replicate": "1", "viability, normalised (%)": 81.5}
{"Target gene": "STK32C (serine/threonine kinase 32C)", "technical replicate": "2", "viability, normalised (%)": "38.2 (active)"}
{"Target gene": "STK32C (serine/threonine kinase 32C)", "technical replicate": "3", "viability, normalised (%)": "53 (active)"}
{"Target gene": "TP53RK (TP53 regulating kinase)", "technical replicate": "1", "viability, normalised (%)": "35.3 (active)"}
{"Target gene": "TP53RK (TP53 regulating kinase)", "technical replicate": "2", "viability, normalised (%)": "46.8 (active)"}
{"Target gene": "TP53RK (TP53 regulating kinase)", "technical replicate": "3", "viability, normalised (%)": "45.4 (active)"}
{"Target gene": "CCNE1 (cyclin E1)", "technical replicate": "1", "viability, normalised (%)": "57.9 (active)"}
{"Target gene": "CCNE1 (cyclin E1)", "technical replicate": "2", "viability, normalised (%)": "75.5 (active)"}
{"Target gene": "CCNE1 (cyclin E1)", "technical replicate": "3", "viability, normalised (%)": "73.6 (active)"}
{"Target gene": "PDE10A (phosphodiesterase 10A)", "technical replicate": "1", "viability, normalised (%)": "41.2 (active)"}
{"Target gene": "PDE10A (phosphodiesterase 10A)", "technical replicate": "2", "viability, normalised (%)": "44.7 (active)"}
{"Target gene": "PDE10A (phosphodiesterase 10A)", "technical replicate": "3", "viability, normalised (%)": "31.3 (active)"}
{"Target gene": "DDX54 (DEAD-box helicase 54)", "technical replicate": "1", "viability, normalised (%)": "69.8 (active)"}
{"Target gene": "DDX54 (DEAD-box helicase 54)", "technical replicate": "2", "viability, normalised (%)": "47.7 (active)"}
{"Target gene": "DDX54 (DEAD-box helicase 54)", "technical replicate": "3", "viability, normalised (%)": "47.6 (active)"}
{"Target gene": "MAPK7 (mitogen-activated protein kinase 7)", "technical replicate": "1", "viability, normalised (%)": "65.7 (active)"}
{"Target gene": "MAPK7 (mitogen-activated protein kinase 7)", "technical replicate": "2", "viability, normalised (%)": "61.5 (active)"}
{"Target gene": "MAPK7 (mitogen-activated protein kinase 7)", "technical replicate": "3", "viability, normalised (%)": "72 (active)"}

3 entries from above, reformatted:
Target gene,technical replicate,"viability, normalised (%)"
COQ8A (coenzyme Q8A),2,61.1 (active)
COQ8A (coenzyme Q8A),3,73.6 (active)
SMAD2 (SMAD family member 2),1,48 (active)
